Patent US20250154198A1, “PEPTIDE INHIBITORS OF INTERLEUKIN-23 RECEPTOR” (Zealand Pharma A/S, priority 2021, published 2025)
Some of these results come from one statement about several compounds together. *1 amine or outer side, *2 acyl side, *3 side chain or, on linkers, in order; H or OH if unused. Where a SMILES comes first, the peptide text is derived from it. Bridges are numbered along the chain shown (N, C = ends). [ ]: non-standard residue; d: D form. Trp(6-F) = N[C@@H](Cc1c[nH]c2cc(F)ccc12)C(=O)O; 2Nal = N[C@@H](Cc1ccc2ccccc2c1)C(=O)O; AEF = NCCOc1ccc(C[C@H](N)C(=O)O)cc1; X1 = O=C(Cc1ccc(CN[*:1])cc1)[*:2]; 3Pal = N[C@@H](Cc1cccnc1)C(=O)O; αMeL = CC(C)C[C@](C)(N)C(=O)O; CH2COCH2 = O=C(C[*:1])C[*:2]; 3Amb = NCc1cccc(C(=O)O)c1; Dab = NCC[C@H](N)C(=O)O

Sequences of proteins named here, by UniProt entry; tags and fusion partners are left off. Residues count along the entry.
UniProt Q5VWK5, 24-629 limits assumed: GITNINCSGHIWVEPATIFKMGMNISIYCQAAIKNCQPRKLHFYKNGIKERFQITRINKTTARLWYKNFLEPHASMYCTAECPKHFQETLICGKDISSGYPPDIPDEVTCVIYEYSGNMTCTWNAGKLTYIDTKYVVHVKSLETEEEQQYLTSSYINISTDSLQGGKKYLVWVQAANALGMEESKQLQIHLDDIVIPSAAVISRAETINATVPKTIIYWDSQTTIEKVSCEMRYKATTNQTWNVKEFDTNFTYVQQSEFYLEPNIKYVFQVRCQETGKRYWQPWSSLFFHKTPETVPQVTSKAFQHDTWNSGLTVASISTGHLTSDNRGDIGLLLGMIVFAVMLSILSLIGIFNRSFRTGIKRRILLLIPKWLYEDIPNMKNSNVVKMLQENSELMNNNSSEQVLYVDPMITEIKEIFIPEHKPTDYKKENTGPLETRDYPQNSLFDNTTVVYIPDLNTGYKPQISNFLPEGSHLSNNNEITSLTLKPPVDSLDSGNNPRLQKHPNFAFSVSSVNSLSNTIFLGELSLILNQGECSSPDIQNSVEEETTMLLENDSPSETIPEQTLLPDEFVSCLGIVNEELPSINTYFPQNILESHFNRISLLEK

biological target: IL-23 mediated phospho-STAT3 formation in DB cells (Homo sapiens, UniProt Q5VWK5); test: Functional inhibition of IL-23 mediated STAT3 signalling (phospho-STAT3 Tyr705 MSD) in DB cells; type: cell-based; details: X13 is 3-(3-Pyridyl)-Ala as C-terminal residue; evidenced by a low IC50 value, Table 3-1
Text: Functional Inhibition of IL-23 Mediated STAT3 Signalling by Compounds
Upon binding of IL-23, the IL-23R forms a heterodimer signalling complex together with IL-12R β1, which through the JAK2/STAT3 pathway promotes phosphorylation of STAT3 to form phospho-STAT3.
The assay was used to quantify the functional antagonism of a compound and to rank order the inhibitor compounds according to their potency. For compounds tested in this assay, the response was normalized relative to control values to calculate the IC50 and maximal inhibitory response from a concentration response curve of the compound in presence of a fixed concentration of human IL-23.
The assay procedure was as follows. […] Following preincubation of the DB cells with inhibitor for 15 min in a cell incubator (37° C., 5% CO2), 20 μL of the prepared 3× the EC80 of hIL-23 solution was added to each well and incubated for 90 min in a cell incubator (37° C., 5% CO2). For some wells buffer only or IL-23 only corresponding to the EC80 was added to obtain readouts needed for normalization. To terminate the assay, the plate was spun at 1000 G for 5 min to pellet cells, the supernatant removed using an 8-channel manual pipette, and then added 50 μL/well Complete Lysis Buffer from the MSD STAT3 kit (Cat #K150SVD, Mesoscale) to the cell pellet. To completely lyse cells to release phospho-STAT3 for detection, the plate was shaken for 10 min at room temperature (500 rpm) sealed with aluminum foil and placed at −80° C. for a minimum of 15 min. Detection of the phospho-STAT3 level in the cell lysate from the individual wells was determined using the MSD STAT3 kit (Cat #K150SVD, Mesoscale) and read on a Meso QuickPlex SQ 120 plate reader (Mesoscale).
For data analysis raw data counts from the Meso QuickPlex SQ 120 plate reader were normalized relative to the response by the EC80 of hIL-23 alone (no compound added) and the buffer level. Compound potency (IC50) and maximal inhibitory response (% inhibition) were estimated by computer-aided curve fitting using a 4-parameter logistic (4PL) non-linear model.

Potency for hIL23 pSTAT3 (in words), particularly strong:
CC(C)C[C@]1(C)NC(=O)[C@H](Cc2ccc3ccccc3c2)NC(=O)[C@H](Cc2ccc(OCCN)cc2)NC(=O)[C@@H]2CCC(=O)NCC[C@H](NC(=O)[C@H](CO)NC(=O)Cc3ccc(cc3)CNC(=O)CC[C@@H](C(=O)N[C@@H](CCN)C(=O)N[C@@H](Cc3cccnc3)C(N)=O)NC1=O)C(=O)N[C@@H](Cc1c[nH]c3ccccc13)C(=O)N[C@@H](CCC(N)=O)C(=O)N2 (relative stereo) [Compound 123, [4-Aminomethyl-phenylacetyl](1c)*S[Dab](2c)WQE(2c)[Y(2-aminoethoxy)][2-Nal][2-Me-Leu]E(1c)[Dab][3-(3-Pyridyl)-Ala]-[NH2]]
CC(C)C[C@]1(C)NC(=O)[C@H](Cc2ccc3ccccc3c2)NC(=O)[C@H](Cc2ccc(OCCN)cc2)NC(=O)[C@@H]2CSCC(=O)CSC[C@H](NC(=O)[C@H](CO)NC(=O)c3cccc(c3)CNC(=O)CC[C@@H](C(=O)N[C@@H](CCCNC(=N)N)C(=O)N[C@@H](Cc3cccnc3)C(N)=O)NC1=O)C(=O)N[C@@H](Cc1c[nH]c3ccccc13)C(=O)N[C@@H](CCC(N)=O)C(=O)N2 [Compound 78, [(3-Aminomethyl)benzoyl](1c)*SC(2a)WQC(2a)[Y(2-aminoethoxy)][2-Nal][2-Me-Leu]E(1c)R[3-(3-Pyridyl)-Ala]-[NH2]] ([3Amb]SCWQC[AEF][2Nal][αMeL]ER[3Pal]-NH2; linker 3-6 via CH2COCH2; lactam N-10)
CC(C)C[C@]1(C)NC(=O)[C@H](Cc2ccc3ccccc3c2)NC(=O)[C@H](Cc2ccc(OCCN)cc2)NC(=O)[C@@H]2CSCC(=O)CSC[C@H](NC(=O)[C@H](CO)NC(=O)Cc3ccc(cc3)CNC(=O)CC[C@@H](C(=O)N[C@@H](CCN)C(=O)N[C@@H](Cc3cccnc3)C(N)=O)NC1=O)C(=O)N[C@@H](Cc1c[nH]c3ccccc13)C(=O)N[C@@H](CCC(N)=O)C(=O)N2 [Compound 120, [4-Aminomethyl-phenylacetyl](1c)*SC(2a)WQC(2a)[Y(2-aminoethoxy)][2-Nal][2-Me-Leu]E(1c)[Dab][3-(3-Pyridyl)-Ala]-[NH2]] ([X1]SCWQC[AEF][2Nal][αMeL]E[Dab][3Pal]-NH2; linker 3-6 via CH2COCH2; lactam N-10)
CC(C)C[C@]1(C)NC(=O)[C@H](Cc2c[nH]c3cc(F)ccc23)NC(=O)[C@H](Cc2ccc(OCCN)cc2)NC(=O)[C@@H]2CSCC(=O)CSC[C@H](NC(=O)[C@H](CO)NC(=O)Cc3ccc(cc3)CNC(=O)CC[C@@H](C(=O)N[C@@H](CCN)C(=O)N[C@@H](Cc3cccnc3)C(N)=O)NC1=O)C(=O)N[C@@H](Cc1c[nH]c3ccccc13)C(=O)N[C@@H](CCC(N)=O)C(=O)N2 [Compound 121, [4-Aminomethyl-phenylacetyl](1c)*SC(2a)WQC(2a)[Y(2-aminoethoxy)][6-F-Trp][2-Me-Leu]E(1c)[Dab][3-(3-Pyridyl)-Ala]-[NH2]] ([X1]SCWQC[AEF][Trp(6-F)][αMeL]E[Dab][3Pal]-NH2; linker 3-6 via CH2COCH2; lactam N-10)
CC(C)C[C@]1(C)NC(=O)[C@H](Cc2ccc3ccccc3c2)NC(=O)[C@H](Cc2ccc(OCCN)cc2)NC(=O)[C@@H]2CCNC(=O)CC[C@H](NC(=O)[C@H](CO)NC(=O)Cc3ccc(cc3)CNC(=O)CC[C@@H](C(=O)N[C@@H](CCN)C(=O)N[C@@H](Cc3cccnc3)C(N)=O)NC1=O)C(=O)N[C@@H](Cc1c[nH]c3ccccc13)C(=O)N[C@@H](CCC(N)=O)C(=O)N2 [Compound 122, [4-Aminomethyl-phenylacetyl](1c)*SE(2c)WQ[Dab](2c)[Y(2-aminoethoxy)][2-Nal][2-Me-Leu]E(1c)[Dab][3-(3-Pyridyl)-Ala]-[NH2]]
